Literature values, collected in PMC8074792, “An ω-3, but Not an ω-6 Polyunsaturated Fatty Acid Decreases Membrane Dipole Potential and Stimulates Endo-Lysosomal Escape of Penetratin” (Frontiers in Cell and Developmental Biology, 2021).

Design: method as in Batta et al., 2020
Settings: lowering DP with the agent; ref Batta et al., 2020; cited from earlier work
From the text: One of the most widely studied cellular functions influenced by the magnitude of DP is the cellular binding and uptake of certain substances including drugs ([Asawakarn et al., 2001]), β-amyloid ([Hertel et al., 1997]) and other peptides ([Cladera and O’Shea, 1998]; [Zhan and Lazaridis, 2012]). […] Although cell-penetrating peptides are promising therapeutic tools for de ...

## CC(C)c1c(C(=O)Nc2ccccc2)c(-c2ccccc2)c(-c2ccc(F)cc2)n1CC[C@@H](O)C[C@@H](O)CC(=O)O [atorvastatin]
  cellular uptake and endo-lysosomal escape of penetratin: increased
